For at least one compound, name, drawing or mass did not settle the structure.
System: HepG2 cells derived from liver cancer
Test: Test 1: autophagy observation (CYTO-ID Green autophagosome fluorescence microscopy)
Assay type: cell-based
Details: 100 μM compound 1 or compound 2, 24 hours, positive control 500 nM rapamycin, 16 hours, inverted fluorescence microscope

SMILES: CO[C@H]1C[C@@H]2CC[C@@H](C)[C@@](O)(O2)C(=O)C(=O)N2CCCC[C@H]2C(=O)O[C@H]([C@H](C)C[C@@H]2CC[C@@H](O)[C@H](OC)C2)CC(=O)[C@H](C)/C=C(\C)[C@@H](O)[C@@H](OC)C(=O)[C@H](C)C[C@H](C)/C=C/C=C/C=C/1C [Positive control, rapamycin]
- green fluorescence showing autophagosome formation (autophagy activity): green fluorescence showing the autophagosome formation was confirmed
